Drawing on PMC6703431, this text covers binding for two molecules.

In this assay the target is Encephalitozoon hellem sporoplasm surface protein 1 (EhSSP1), yeast two-hybrid fusion (Encephalitozoon hellem). The assay can be described thus: two-hybrid; EhSSP1 bait in pGBKT7-BD (Y2H Gold) mated with preys in pGADT7-AD (Y187); selection on QDO/X/A plates, 30°C, 5 to 7 days.

These are yes or no findings as the source states them, for the method shown. Tags and fused reporters may be left off the sequences shown.

B1: Encephalitozoon hellem polar tube protein 2 (EhPTP2), yeast two-hybrid fusion (protein, UniProt P0CAT5 1-272)
chain: MLLLFTVVTLVSAAQVAPVTPQAAVPTQFLPGAQQKIGGVDNRCANKQVEGVQIFQGDMADCPKRNSEAANAMVQRAKQKALEIYNKEISKGPTPKDSGQCIERAVQGTDRCILAKIIDKAVNMLKYRISKVGNATALFRGNKLISLILNVDYGLKPFFTVVKKKTKRVFPQGDELNFNGIGQLIGVKGTFPQDNNDECKPCDSPKKTVETVAEECNLGCQLKGTPGLISRAIQKKEVKESSKDGEKSSTQNGEGTTDDEDGQQSPDGNGPE
Consider B1, for which the binding result was “no binding”.

B2: Encephalitozoon hellem polar tube protein 1 (EhPTP1), yeast two-hybrid fusion (protein, UniProt O76273 1-453)
chain: MKGISKILSASIMVMKLGNVYSAVPLCSNTYDPSQQQPSYVLIPSTPEAITNCAYSPKNAYVPSSPTTSSSTPGTNNDNETSPTTEDVGTCKISVVKHCDTPGASSTPCEPEQTIPAQPVTMATVTPAIIASVQTPSVVSVIPVTQKVIQPATMIVPPSSIIPGYYPNGTPAAPGQQGQILSGSVLAPGASSCQLVPGNTPGQMLPGMTPGVSPCLPTQGGDGSNQTIPGIVYPCQPGQGGSGSNQTIPGVISPCQPGQGGSGSNQTIPGIVYPCQPGQGGSGSNQTIPGVISPCQPGQGGSGSNQTIPGIVYPCQPGQNGDGSNQTIPGVISPCQPGQGGNGNGTTGQPGQCVSVPQTPNPIAMPPISGISGNGYPTSTTYTQSLGQLGPCIDVQKPTSSCESQTNEKSTMQYAMEACAAPTPTVVIGNSEYLVGPGMYSSLTSPCNSCCQC
For B2, the binding entry is recorded as “no binding”.
